Experimental data taken from patent publication US20140065632A1, “MARKER GENE FOR DETECTION OF TUMOR PROMOTER, AND METHOD FOR DETECTION OF TUMOR PROMOTER” (priority 2007, published 2014).
For some assays here: At least one read-out could not be matched to a standard name with certainty. Some of these results come from one statement about several compounds together.

How the values were obtained:
[1] = tested on: BALB/c 3T3 cells; assay: Transformation assay using BALB/c 3T3 cells (focus formation); conditions: Example 6, foci on day 25, compared with negative control and positive control TPA
[2] = tested on: Orm1; assay: Quantitative RT-PCR of Orm1 gene expression in the BALB/c 3T3 cell transformation assay; format: cell-based, mouse; conditions: Example 3; MCA-initiated BALB/c 3T3 cells, RNA 48 hours after addition of test substance, normalized by β-actin

Compound	focus formation ability (intensity of the tumor-promoting activity) [1]	Expression level of Orm1 (rates relative to the negative control) [2]
CCNc1nc(Cl)nc(NC(C)C)n1 [atrazine]	+ (the number of foci was increased at least 2-fold compared to the negative control (P<0.05, Wilcoxon (Mann-Whitney) test) but the difference is not significant (P<0.05))	
O=C1O[C@H]([C@@H](O)CO)C([O-])=C1O.[Na+] [Sodium ascorbate, sodium ascorbate]		0.6
C[C@H](CCC(=O)O)[C@H]1CC[C@H]2[C@@H]3CC[C@@H]4C[C@H](O)CC[C@]4(C)[C@H]3CC[C@]12C [Lithocholic acid, lithocholic acid]		5.8
CC(C)(C)c1cc(O)ccc1O [TBHQ, tert-butylhydroquinone]		0.9
OC[C@@H](O)[C@@H](O)[C@H](O)[C@H](O)CO [D-mannitol]		0.9
